{
  "source": "PubChem BioAssay AID330",
  "about": "(DTP/NCI, 2004)",
  "tested_on": "P388 leukemia ip, CD2F1 mice, survival T/C",
  "test": "NCI In Vivo Anticancer Drug Screen. Data for tumor model P388 Leukemia (intraperitoneal) in CD2F1 (CDF1) mice",
  "conditions": "T/C endpoint: median survival time, higher T/C = longer survival",
  "key": {"[1]": {"conditions": "dose: 100.0 mg/kg/injection, schedule: Q01DX005 (ip), vehicle: Klucel (hydroxypropylcellulose) (HPC)"}, "[2]": {"conditions": "dose: 200.0 mg/kg/injection, schedule: Q01DX005 (ip), vehicle: Klucel (hydroxypropylcellulose) (HPC)"}},
  "note": "The list does not hold the whole screen: it is rich in T/C values a quarter to a half above the control, in often repeated tests (any T/C) and in doses without a T/C. Further doses and runs are listed elsewhere. T/C is the treated group as % of the vehicle group. Some entries give survivors of the animals treated and no T/C: the source files T/C as zero there, which appears to mark a toxic dose or a test without result, not a measured value. Some doses without a T/C left all or most animals alive at the check, yet need not have been tolerated: the source hardly ever lists a survival T/C far under the control, and the zero likely stands for such cases as well. Survivors were counted at the toxicity check, usually on the fifth day, unless a day is given; later deaths do not show. Schedule codes are those of the source, read here as Q, the interval in days (D) or hours (H), X, the number of doses. Some entries hold several experiments; the values are given in rising order. Where survival is the endpoint, the PubChem record calls one and a half times the control and up active, and a quarter to a half above the control has no call in these data; cut-offs in other NCI protocols can differ. Some T/C values carry the count of animals alive at the toxicity check (mostly the fifth day); where none is given, no animal had died by that day.",
  "data": [
    {"smiles": "N=C(N)c1ccc(OCCCCCCOc2ccc(C(=N)N)cc2I)cc1", "values": [
      {"measurement": "survivor count", "setting": "dose: 25.0 mg/kg/injection, schedule: Q01DX005 (ip), vehicle: Klucel (hydroxypropylcellulose) (HPC)", "value": "3 of 6"},
      {"measurement": "survivor count", "setting": "dose: 50.0 mg/kg/injection, schedule: Q01DX005 (ip), vehicle: Klucel (hydroxypropylcellulose) (HPC)", "value": "0 of 6 and 3 of 5"},
      {"measurement": "survivor count", "setting": "[1]", "value": "0 of 5"},
      {"measurement": "survivor count", "setting": "[2]", "value": "0 of 5"}
    ]},
    {"smiles": "C[S+](C)c1ccc(Cl)cc1", "values": [
      {"measurement": "survivor count", "setting": "dose: 50.0 mg/kg/injection, schedule: Q01DX009 (ip), vehicle: saline", "value": "4 of 6"},
      {"measurement": "survivor count", "setting": "dose: 100.0 mg/kg/injection, schedule: Q01DX009 (ip), vehicle: saline", "value": "0 of 6"},
      {"measurement": "survivor count", "setting": "dose: 200.0 mg/kg/injection, schedule: Q01DX009 (ip), vehicle: saline", "value": "0 of 6"}
    ]},
    {"smiles": "CC1(C)C[C@@]2(F)C(=O)NC(=O)N[C@@H]12", "values": [
      {"measurement": "survivor count", "setting": "dose: 100.0 mg/kg/injection, schedule: Q01DX001 (ip), vehicle: Klucel (hydroxypropylcellulose) (HPC)", "value": "1 of 6"},
      {"measurement": "survivor count", "setting": "dose: 200.0 mg/kg/injection, schedule: Q01DX001 (ip), vehicle: Klucel (hydroxypropylcellulose) (HPC)", "value": "0 of 6"},
      {"measurement": "survivor count", "setting": "dose: 400.0 mg/kg/injection, schedule: Q01DX001 (ip), vehicle: Klucel (hydroxypropylcellulose) (HPC)", "value": "0 of 6"}
    ]},
    {"smiles": "CC[C@@H](C)[C@@H]1NC(=O)C(NC(=O)C(CC(C)C)NC)C(C)OC(=O)C(Cc2ccc(OC)cc2)N(C)C(=O)C2CCCN2C(=O)C(CC(C)C)NC(=O)C(C)C(=O)C(C(C)C)OC(=O)C[C@H]1O", "note": "(some centres not stated)", "values": [
      {"measurement": "T/C", "setting": "dose: 0.5 mg/kg/injection, schedule: Q01DX005 (ip), vehicle: water", "value": "131 % of control"},
      {"measurement": "T/C", "setting": "dose: 1.0 mg/kg/injection, schedule: Q01DX005 (ip), vehicle: water", "value": "140 % of control [5 of 6 alive]"},
      {"measurement": "T/C", "setting": "dose: 2.0 mg/kg/injection, schedule: Q01DX005 (ip), vehicle: saline + alcohol", "value": "138 % of control"},
      {"measurement": "T/C", "setting": "dose: 4.0 mg/kg/injection, schedule: Q01DX005 (ip), vehicle: saline + alcohol", "value": "133 % of control"},
      {"measurement": "T/C", "setting": "dose: 8.0 mg/kg/injection, schedule: Q01DX005 (ip), vehicle: saline + alcohol", "value": "145 % of control"}
    ]},
    {"smiles": "COc1ccc(C2CC(=O)N(CN3CCN(c4ccc(Cl)cc4)CC3)C(=O)C2)cc1", "values": [
      {"measurement": "survivor count", "setting": "dose: 50.0 mg/kg/injection, schedule: Q01DX009 (ip), vehicle: saline with Tween-80", "value": "6 of 6"},
      {"measurement": "survivor count", "setting": "dose: 100.0 mg/kg/injection, schedule: Q01DX009 (ip), vehicle: saline with Tween-80", "value": "6 of 6"}
    ]},
    {"smiles": "C[CH2][Sn]1([CH2]C)[O]C(=O)CCCCC(=O)[O]1", "values": [
      {"measurement": "T/C", "setting": "dose: 25.0 mg/kg/injection, schedule: Q04DX003 (ip), vehicle: saline", "value": "126 % of control"},
      {"measurement": "T/C", "setting": "dose: 50.0 mg/kg/injection, schedule: Q04DX003 (ip), vehicle: saline", "value": "134 % of control"},
      {"measurement": "T/C", "setting": "dose: 100.0 mg/kg/injection, schedule: Q04DX003 (ip), vehicle: saline", "value": "131 and 147 % of control"},
      {"measurement": "survivor count", "setting": "dose: 200.0 mg/kg/injection, schedule: Q04DX003 (ip), vehicle: saline", "value": "0 of 6"},
      {"measurement": "survivor count", "setting": "dose: 400.0 mg/kg/injection, schedule: Q04DX003 (ip), vehicle: saline", "value": "0 of 6"}
    ]},
    {"smiles": "CCOC(CNC(C)c1ccc2cc(OC)c(OC)cc2c1)OCC", "note": "(configuration not stated)", "values": [
      {"measurement": "T/C", "setting": "dose: 400.0 mg/kg/injection, schedule: Q01DX009 (ip), vehicle: Klucel (hydroxypropylcellulose) (HPC)", "value": "142 % of control"}
    ]},
    {"smiles": "CCOC(=O)c1ccc(N2N=C3C(=CC(=O)c4ccccc43)SCC2=O)cc1", "values": [
      {"measurement": "survivor count", "setting": "dose: 50.0 mg/kg/injection, schedule: Q01DX005 (ip), vehicle: saline with Tween-80", "value": "5 of 5"},
      {"measurement": "survivor count", "setting": "dose: 100.0 mg/kg/injection, schedule: Q01DX005 (ip), vehicle: saline with Tween-80", "value": "0 of 6"},
      {"measurement": "survivor count", "setting": "dose: 200.0 mg/kg/injection, schedule: Q01DX005 (ip), vehicle: saline with Tween-80", "value": "0 of 6"}
    ]},
    {"smiles": "Cc1ccc(S(=O)(=O)N2C(=O)CCC2=O)cc1", "values": [
      {"measurement": "survivor count", "setting": "dose: 400.0 mg/kg/injection, schedule: Q04DX003 (ip), vehicle: Klucel (hydroxypropylcellulose) (HPC)", "value": "2 of 6"}
    ]},
    {"smiles": "COc1ccc(NC(=O)CCC(=O)Oc2ccccc2)cc1", "values": [
      {"measurement": "survivor count", "setting": "dose: 200.0 mg/kg/injection, schedule: Q01DX009 (ip), vehicle: saline with Tween-80", "value": "3 of 6"}
    ]},
    {"smiles": "COc1cc([C@@H]2c3cc4c(c(OC)c3C[C@H]3COC(=O)[C@@H]32)OCO4)cc(OC)c1OC", "values": [
      {"measurement": "survivor count", "setting": "[1]", "value": "6 of 6"},
      {"measurement": "survivor count", "setting": "[2]", "value": "3 of 6"}
    ]},
    {"smiles": "C1CCC([Se][Se]C2CCCC2)C1", "values": [
      {"measurement": "survivor count", "setting": "dose: 100.0 mg/kg/injection, schedule: Q01DX009 (ip), vehicle: Klucel (hydroxypropylcellulose) (HPC)", "value": "5 of 6"},
      {"measurement": "survivor count", "setting": "dose: 200.0 mg/kg/injection, schedule: Q01DX009 (ip), vehicle: Klucel (hydroxypropylcellulose) (HPC)", "value": "0 of 6"}
    ]}
  ]
}
